Laboratory results taken from PubChem BioAssay AID186 (DTP/NCI, 2004).
The mice bore no tumour; each value counts animals alive of those treated. Survivors were counted at the toxicity check, usually on the fifth day, unless a day is given; later deaths do not show. Schedule codes are those of the source, read here as Q, the interval in days (D) or hours (H), X, the number of doses. Some structures stand for samples that the source files as different forms (salt, stereo form or complex); doses refer to the form tested. Counts like (3×) say how often a value occurs here.

System: B6D2F1 mice, nontumored toxicity test, survival
Experiment: NCI In Vivo Anticancer Drug Screen. Data for tumor model Nontumored Animals (Toxicity Test) in B6D2F1 (BDF1) mice

O=C1c2ccccc2C(=O)c2c(NCCNCCO)ccc(NCCNCCO)c21 was tested, and the survivor count (dose: 1.0 mg/kg/injection, schedule: Q03HX016 (ip), vehicle: acid diluted with saline) was 8 of 8, the survivor count (dose: 1.0 mg/kg/injection, schedule: Q03HX024 (ip), vehicle: acid diluted with saline) was 8 of 8 and the survivor count (dose: 1.0 mg/kg/injection, schedule: Q03HX024 (ip), vehicle: saline) was 8 of 8. For the same compound, the survivor count (dose: 2.0 mg/kg/injection, schedule: Q01DX009 (ip), vehicle: acid diluted with saline) was 8 of 8, the survivor count (dose: 2.0 mg/kg/injection, schedule: Q01DX009 (ip), vehicle: saline) was 8 of 8 and the survivor count (dose: 2.0 mg/kg/injection, schedule: Q01DX009 (sc), vehicle: acid diluted with saline) was 8 of 8. For the same compound, the survivor count (dose: 2.0 mg/kg/injection, schedule: Q03HX008 (ip), vehicle: acid diluted with saline) was 8 of 8, the survivor count (dose: 2.0 mg/kg/injection, schedule: Q03HX008 (ip), vehicle: saline) was 8 of 8 and the survivor count (dose: 2.0 mg/kg/injection, schedule: Q03HX016 (ip), vehicle: acid diluted with saline) was 8 of 8. The survivor count (dose: 2.0 mg/kg/injection, schedule: Q03HX024 (ip), vehicle: acid diluted with saline) was 8 of 8, the survivor count (dose: 2.0 mg/kg/injection, schedule: Q03HX024 (ip), vehicle: saline) was 8 of 8 and the survivor count (dose: 3.12 mg/kg/injection, schedule: Q01DX009 (ip), vehicle: saline) was 10 of 10 (2×). The survivor count (dose: 4.0 mg/kg/injection, schedule: Q01DX005 (ip), vehicle: acid diluted with saline) was 8 of 8, the survivor count (dose: 4.0 mg/kg/injection, schedule: Q01DX005 (ip), vehicle: saline) was 8 of 8 and the survivor count (dose: 4.0 mg/kg/injection, schedule: Q01DX005 (iv), vehicle: saline) was 8 of 8. The survivor count (dose: 4.0 mg/kg/injection, schedule: Q01DX009 (ip), vehicle: acid diluted with saline) was 8 of 8, the survivor count (dose: 4.0 mg/kg/injection, schedule: Q01DX009 (ip), vehicle: saline) was 8 of 8 and the survivor count (dose: 4.0 mg/kg/injection, schedule: Q01DX009 (sc), vehicle: acid diluted with saline) was 8 of 8. The survivor count (dose: 4.0 mg/kg/injection, schedule: Q01DX009 (sc), vehicle: saline) was 8 of 8, the survivor count (dose: 4.0 mg/kg/injection, schedule: Q03HX008 (ip), vehicle: acid diluted with saline) was 8 of 8 and the survivor count (dose: 4.0 mg/kg/injection, schedule: Q03HX008 (ip), vehicle: saline) was 8 of 8. The survivor count (dose: 4.0 mg/kg/injection, schedule: Q03HX016 (ip), vehicle: acid diluted with saline) was 8 of 8, the survivor count (dose: 4.0 mg/kg/injection, schedule: Q03HX024 (ip), vehicle: acid diluted with saline) was 8 of 8 and the survivor count (dose: 4.0 mg/kg/injection, schedule: Q03HX024 (ip), vehicle: saline) was 8 of 8. For the same compound, the survivor count (dose: 6.25 mg/kg/injection, schedule: Q01DX009 (ip), vehicle: saline) was 10 of 10 (2×), the survivor count (dose: 8.0 mg/kg/injection, schedule: Q01DX001 (ip), vehicle: saline) was 8 of 8 and the survivor count (dose: 8.0 mg/kg/injection, schedule: Q01DX005 (ip), vehicle: acid diluted with saline) was 8 of 8. The survivor count (dose: 8.0 mg/kg/injection, schedule: Q01DX005 (ip), vehicle: saline) was 8 of 8, the survivor count (dose: 8.0 mg/kg/injection, schedule: Q01DX005 (iv), vehicle: saline) was 8 of 8 and the survivor count (dose: 8.0 mg/kg/injection, schedule: Q01DX009 (ip), vehicle: acid diluted with saline) was 8 of 8. For the same compound, the survivor count (dose: 8.0 mg/kg/injection, schedule: Q01DX009 (ip), vehicle: saline) was 8 of 8, the survivor count (dose: 8.0 mg/kg/injection, schedule: Q01DX009 (oral), vehicle: acid diluted with saline) was 8 of 8 and the survivor count (dose: 8.0 mg/kg/injection, schedule: Q01DX009 (sc), vehicle: acid diluted with saline) was 8 of 8. The survivor count (dose: 8.0 mg/kg/injection, schedule: Q01DX009 (sc), vehicle: saline) was 8 of 8, the survivor count (dose: 8.0 mg/kg/injection, schedule: Q03HX008 (ip), vehicle: acid diluted with saline) was 8 of 8 and the survivor count (dose: 8.0 mg/kg/injection, schedule: Q03HX008 (ip), vehicle: saline) was 8 of 8. For the same compound, the survivor count (dose: 8.0 mg/kg/injection, schedule: Q03HX016 (ip), vehicle: acid diluted with saline) was 8 of 8, the survivor count (dose: 8.0 mg/kg/injection, schedule: Q03HX024 (ip), vehicle: acid diluted with saline) was 8 of 8 and the survivor count (dose: 8.0 mg/kg/injection, schedule: Q03HX024 (ip), vehicle: saline) was 8 of 8. For the same compound, the survivor count (dose: 8.0 mg/kg/injection, schedule: Q04DX003 (ip), vehicle: acid diluted with saline) was 8 of 8, the survivor count (dose: 8.0 mg/kg/injection, schedule: Q04DX003 (ip), vehicle: saline) was 8 of 8 and the survivor count (dose: 8.0 mg/kg/injection, schedule: Q08DX002 (ip), vehicle: acid diluted with saline) was 8 of 8. The survivor count (dose: 8.0 mg/kg/injection, schedule: Q08DX002 (ip), vehicle: saline) was 8 of 8, the survivor count (dose: 12.5 mg/kg/injection, schedule: Q01DX009 (ip), vehicle: saline) was 10 of 10 (2×) and the survivor count (dose: 16.0 mg/kg/injection, schedule: Q01DX001 (ip), vehicle: acid diluted with saline) was 8 of 8. The survivor count (dose: 16.0 mg/kg/injection, schedule: Q01DX001 (ip), vehicle: saline) was 8 of 8, the survivor count (dose: 16.0 mg/kg/injection, schedule: Q01DX001 (oral), vehicle: saline) was 8 of 8 and the survivor count (dose: 16.0 mg/kg/injection, schedule: Q01DX001 (sc), vehicle: acid diluted with saline) was 8 of 8. For the same compound, the survivor count (dose: 16.0 mg/kg/injection, schedule: Q01DX005 (ip), vehicle: acid diluted with saline) was 8 of 8, the survivor count (dose: 16.0 mg/kg/injection, schedule: Q01DX005 (ip), vehicle: saline) was 8 of 8 and the survivor count (dose: 16.0 mg/kg/injection, schedule: Q01DX005 (iv), vehicle: saline) was 8 of 8. For the same compound, the survivor count (dose: 16.0 mg/kg/injection, schedule: Q01DX009 (ip), vehicle: acid diluted with saline) was 8 of 8, the survivor count (dose: 16.0 mg/kg/injection, schedule: Q01DX009 (ip), vehicle: saline) was 8 of 8 and the survivor count (dose: 16.0 mg/kg/injection, schedule: Q01DX009 (oral), vehicle: acid diluted with saline) was 8 of 8. The survivor count (dose: 16.0 mg/kg/injection, schedule: Q01DX009 (oral), vehicle: saline) was 8 of 8, the survivor count (dose: 16.0 mg/kg/injection, schedule: Q01DX009 (sc), vehicle: acid diluted with saline) was 8 of 8 and the survivor count (dose: 16.0 mg/kg/injection, schedule: Q01DX009 (sc), vehicle: saline) was 8 of 8. The survivor count (dose: 16.0 mg/kg/injection, schedule: Q03HX008 (ip), vehicle: acid diluted with saline) was 8 of 8, the survivor count (dose: 16.0 mg/kg/injection, schedule: Q03HX008 (ip), vehicle: saline) was 6 of 8 and the survivor count (dose: 16.0 mg/kg/injection, schedule: Q03HX016 (ip), vehicle: acid diluted with saline) was 7 of 8. The survivor count (dose: 16.0 mg/kg/injection, schedule: Q03HX024 (ip), vehicle: acid diluted with saline) was 8 of 8, the survivor count (dose: 16.0 mg/kg/injection, schedule: Q03HX024 (ip), vehicle: saline) was 8 of 8 and the survivor count (dose: 16.0 mg/kg/injection, schedule: Q04DX003 (ip), vehicle: acid diluted with saline) was 8 of 8. For the same compound, the survivor count (dose: 16.0 mg/kg/injection, schedule: Q04DX003 (ip), vehicle: saline) was 8 of 8, the survivor count (dose: 16.0 mg/kg/injection, schedule: Q08DX002 (ip), vehicle: acid diluted with saline) was 8 of 8 and the survivor count (dose: 16.0 mg/kg/injection, schedule: Q08DX002 (ip), vehicle: saline) was 8 of 8. The survivor count (dose: 25.0 mg/kg/injection, schedule: Q01DX009 (ip), vehicle: saline) was 10 of 10 (2×).
